This test has as its system L444P GC. Description: intact cell GC activity assay in homozygous L444P GC patient-derived fibroblasts. To be noted: only the named compounds increased activity. The class given is cell-based, human.

Structures are written as SMILES.

For the compound `C(=C\c1ccccc1)/CN1CCN(C(c2ccccc2)c2ccccc2)CC1` [cinnarizine], the “L444P GC activity, screen of VGCC blockers, ionotropic glutamate receptor inhibitors and other calcium channel blockers” value is “only diltiazem and verapamil”.
